Data source: PubChem BioAssay AID652272 (Drosophila RNAi Screening Center, 2013)
Assay: 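Genome-wide knock-down search for components of Hedgehog signalling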 (primary screen). Cell system: Drosophila clone 8 (Cl8) cells. Knock-down reagent: long dsRNA against Drosophila genes. Measured: 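Plate reader light from a firefly reporter under a ptc promoter fragment that responds to Hedgehog, with Renilla light as transfection reference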. Direction: firefly Hh reporter signal: higher = more ptc reporter light; Renilla reference signal: higher = more Renilla control light. Call rule: 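Called a hit if the two-replicate mean z-score lies below -2 or above +3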. Calls: active = hit: reporter lowered or raised; inactive = not a hit.
The screen tested about 21,000 reagents; shown is an unselected part of those that have a named target and a result. Over the whole deposit, 503 (2.4%) got an active call. 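Raw plate light values, not normalised; calls rest on replicate z-scores that were not deposited; hits include reporter decreases as well as increases.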 Reagents against one gene are numbered here. Names joined by + are all predicted targets of the reagent. Not given: the amount of reagent, the time to read-out.

With knock-down of TfIIS (GeneID 34883), the screen gave firefly Hh reporter signal, replicate 1 = 58832; firefly Hh reporter signal, replicate 2 = 39719; Renilla reference signal, replicate 1 = 2512; Renilla reference signal, replicate 2 = 1699; inactive.
Depletion of CG15185 (GeneID 40798) resulted in: firefly Hh reporter signal, replicate 1 = 46002; firefly Hh reporter signal, replicate 2 = 71733; Renilla reference signal, replicate 1 = 2282; Renilla reference signal, replicate 2 = 2403; inactive.
Against CG13659 (GeneID 43059) the deposit lists firefly Hh reporter signal, replicate 1 = 5.43e5; firefly Hh reporter signal, replicate 2 = 1.31e5; Renilla reference signal, replicate 1 = 27891; Renilla reference signal, replicate 2 = 3735; inactive.
Jon65Aii (GeneID 38684) scored firefly Hh reporter signal, replicate 1 = 66419; firefly Hh reporter signal, replicate 2 = 55974; Renilla reference signal, replicate 1 = 8678; Renilla reference signal, replicate 2 = 4262; inactive.
Knock-down of CG4611 (GeneID 38601) came out at: firefly Hh reporter signal, replicate 1 = 59923; firefly Hh reporter signal, replicate 2 = 74061; Renilla reference signal, replicate 1 = 5722; Renilla reference signal, replicate 2 = 5825; inactive.
Knock-down of Rgl (GeneID 44115) came out at: firefly Hh reporter signal, replicate 1 = 58443; firefly Hh reporter signal, replicate 2 = 54325; firefly Hh reporter signal, replicate 3 = 31239; Renilla reference signal, replicate 1 = 4540; Renilla reference signal, replicate 2 = 1345; inactive.
For Gyc32E (GeneID 34553), the values are firefly Hh reporter signal, replicate 1 = 5.61e5; firefly Hh reporter signal, replicate 2 = 2.02e5; Renilla reference signal, replicate 1 = 29104; Renilla reference signal, replicate 2 = 8779; inactive.
For ATP6 (retired record) (GeneID 192467), the entry reads firefly Hh reporter signal, replicate 1 = 73872; firefly Hh reporter signal, replicate 2 = 2.63e5; Renilla reference signal, replicate 1 = 1529; Renilla reference signal, replicate 2 = 10987; inactive.
bor (GeneID 53565) gave firefly Hh reporter signal, replicate 1 = 65495; firefly Hh reporter signal, replicate 2 = 85297; Renilla reference signal, replicate 1 = 2052; Renilla reference signal, replicate 2 = 2115; inactive.

Part of the list above in another layout:
gene | reagent | firefly Hh reporter signal, replicate 1 | firefly Hh reporter signal, replicate 2 | firefly Hh reporter signal, replicate 3 | Renilla reference signal, replicate 1 | Renilla reference signal, replicate 2 | outcome
CG4611 (GeneID 38601) | 1 | 59923 | 74061 | – | 5722 | 5825 | inactive
Rgl (GeneID 44115) | 1 | 58443 | 54325 | 31239 | 4540 | 1345 | inactive
Gyc32E (GeneID 34553) | 1 | 5.61e5 | 2.02e5 | – | 29104 | 8779 | inactive
ATP6 (retired record) (GeneID 192467) | 1 | 73872 | 2.63e5 | – | 1529 | 10987 | inactive

Further entries follow:
Knock-down of CG32259 (GeneID 317942) resulted in: firefly Hh reporter signal, replicate 1 = 1.14e5; firefly Hh reporter signal, replicate 2 = 3.26e5; Renilla reference signal, replicate 1 = 3408; Renilla reference signal, replicate 2 = 11205; inactive.
With knock-down of CG4455 (GeneID 34975) the results were firefly Hh reporter signal, replicate 1 = 53884; firefly Hh reporter signal, replicate 2 = 50662; Renilla reference signal, replicate 1 = 2482; Renilla reference signal, replicate 2 = 1970; inactive.
Silencing of LysD + LysC (retired record) resulted in: firefly Hh reporter signal, replicate 1 = 62325; firefly Hh reporter signal, replicate 2 = 53600; Renilla reference signal, replicate 1 = 2336; Renilla reference signal, replicate 2 = 4256; inactive.
With knock-down of eIF4E6 (GeneID 43422), the record shows firefly Hh reporter signal, replicate 1 = 1.25e5; firefly Hh reporter signal, replicate 2 = 1.03e5; Renilla reference signal, replicate 1 = 4073; Renilla reference signal, replicate 2 = 2054; inactive.
With knock-down of CG13036 (retired record) (GeneID 39823), the screen gave firefly Hh reporter signal, replicate 1 = 93008; Renilla reference signal, replicate 1 = 5972; Renilla reference signal, replicate 2 = 3152; inactive.
CG9444 (GeneID 41175) scored firefly Hh reporter signal, replicate 1 = 74336; firefly Hh reporter signal, replicate 2 = 1.05e5; Renilla reference signal, replicate 1 = 1852; Renilla reference signal, replicate 2 = 2869; inactive.
With knock-down of Trs31 (GeneID 36641), the screen gave firefly Hh reporter signal, replicate 1 = 1.04e5; firefly Hh reporter signal, replicate 2 = 97392; Renilla reference signal, replicate 1 = 4582; Renilla reference signal, replicate 2 = 3804; inactive.
rols (GeneID 39368) #1 gave firefly Hh reporter signal, replicate 1 = 47696; firefly Hh reporter signal, replicate 2 = 42646; firefly Hh reporter signal, replicate 3 = 51239; Renilla reference signal, replicate 1 = 4374; Renilla reference signal, replicate 2 = 3380; inactive.
With knock-down of rols (GeneID 39368) #2, the screen gave firefly Hh reporter signal, replicate 1 = 17744; firefly Hh reporter signal, replicate 2 = 50332; firefly Hh reporter signal, replicate 3 = 44672; Renilla reference signal, replicate 1 = 4336; Renilla reference signal, replicate 2 = 3031; inactive.
Knock-down of rols (GeneID 39368) #3 resulted in: firefly Hh reporter signal, replicate 1 = 42257; firefly Hh reporter signal, replicate 2 = 40851; firefly Hh reporter signal, replicate 3 = 48858; Renilla reference signal, replicate 1 = 3777; Renilla reference signal, replicate 2 = 3465; inactive.
Against ovo (GeneID 31429) #1, the values are firefly Hh reporter signal, replicate 1 = 85396; firefly Hh reporter signal, replicate 2 = 1.06e5; Renilla reference signal, replicate 1 = 1899; Renilla reference signal, replicate 2 = 2733; inactive.
Depletion of ovo (GeneID 31429) #2 came out at: firefly Hh reporter signal, replicate 1 = 1.17e5; firefly Hh reporter signal, replicate 2 = 3.25e5; Renilla reference signal, replicate 1 = 4171; Renilla reference signal, replicate 2 = 11633; inactive.
With knock-down of CG3703 (GeneID 31045) #1, the record shows firefly Hh reporter signal, replicate 1 = 1.23e5; firefly Hh reporter signal, replicate 2 = 2.55e5; Renilla reference signal, replicate 1 = 4762; Renilla reference signal, replicate 2 = 11461; inactive.
After knock-down of CG3703 (GeneID 31045) #2, the screen gave firefly Hh reporter signal, replicate 1 = 94096; firefly Hh reporter signal, replicate 2 = 1.81e5; Renilla reference signal, replicate 1 = 3760; Renilla reference signal, replicate 2 = 6945; inactive.
Silencing of CG3703 (GeneID 31045) #3 came out at: firefly Hh reporter signal, replicate 1 = 82096; firefly Hh reporter signal, replicate 2 = 1.27e5; Renilla reference signal, replicate 1 = 3305; Renilla reference signal, replicate 2 = 5284; inactive.
Knock-down of ple (GeneID 38746) came out at: firefly Hh reporter signal, replicate 1 = 29769; firefly Hh reporter signal, replicate 2 = 29589; Renilla reference signal, replicate 1 = 4520; Renilla reference signal, replicate 2 = 2677; inactive.
Silencing of Lcp65Ad (GeneID 38707) gave: firefly Hh reporter signal, replicate 1 = 76232; firefly Hh reporter signal, replicate 2 = 55719; Renilla reference signal, replicate 1 = 8947; Renilla reference signal, replicate 2 = 4539; inactive.
With knock-down of dan (GeneID 43023), the screen gave firefly Hh reporter signal, replicate 1 = 88706; firefly Hh reporter signal, replicate 2 = 51341; Renilla reference signal, replicate 1 = 2753; Renilla reference signal, replicate 2 = 1450; inactive.
